Literature values in patent US20230146870A1, “METHOD TO QUANTIFY AFFINITY AND SELECTIVITY OF SMALL MOLECULES FOR PROTEINS IN LIVING CELLS” (Ohio State Innovation Foundation, priority 2021, published 2023).
pIC50: −log10 of the molar value.

Test system: microtubules in fixed cells
Conditions: read-out: IC50 in fixed cells; previously reported; cited from earlier work

For COc1cc2c(c(OC)c1OC)-c1ccc(OC)c(=O)cc1[C@@H](NC(C)=O)CC2 [colchicine], the pIC50 is given as 7.66.
